The record followed here is publication PMC3170314.

These are yes or no findings as the source states them, for the method shown. Binding seen in cells or lysates may run through a third protein. For some assays here: A result given as binding can be weak or reduced; the word gives no strength. Tags and fused reporters may be left off the sequences shown.

The target in experiment [1] is T1, 3Flag tagged RNF185 (human) (UniProt Q96GF1).
T1 sequence: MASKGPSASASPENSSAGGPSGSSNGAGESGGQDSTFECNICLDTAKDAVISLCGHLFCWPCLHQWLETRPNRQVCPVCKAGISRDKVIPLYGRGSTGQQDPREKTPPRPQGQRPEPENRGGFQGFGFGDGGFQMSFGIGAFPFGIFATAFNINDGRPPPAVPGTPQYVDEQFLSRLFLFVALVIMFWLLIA
Description: co-IP; 293T cells co-transfected with a 3Flag tagged and a 2HA tagged construct; 24 h later lysates (50 mM Tris-HCl pH 7.5, 150 mM NaCl, 1 mM EDTA, 1% Triton X-100, 10% glycerol) precipitated with anti-Flag conjugated beads and blotted with anti-Flag and anti-HA.

In experiment [2] the target is RING domain mutated RNF185 (human) (UniProt Q96GF1). The experiment is described as above.

With “dCC mutant of BNIP1 (from UniProt Q12981)”, the binding entry in experiment [1] is on record as “no binding”.

B1: 2HA tagged BNIP1 (protein, UniProt Q12981 1-228)
chain: MAAPQDVHVRICNQEIVKFDLEVKALIQDIRDCSGPLSALTELNTKVKEKFQQLRHRIQDLEQLAKEQDKESEKQLLLQEVENHKKQMLSNQASWRKANLTCKIAIDNLEKAELLQGGDLLRQRKTTKESLAQTSSTITESLMGISRMMAQQVQQSEEAMQSLVTSSRTILDANEEFKSMSGTIQLGRKLITKYNRRELTDKLLIFLALALFLATVLYIVKKRLFPFL
Regarding B1, the binding entry in experiment [2] is listed as “binds”.
